PubChem BioAssay AID720505 – Drosophila RNAi Screening Center, 2013

- Test: 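Genes needed for store-operated calcium entry in fly cells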 (primary screen)
- System: Drosophila S2R+ cells
- Reagent: long dsRNA against Drosophila genes
- Challenge: thapsigargin (2 µM) in calcium-free buffer to empty internal stores, then 2 mM calcium added back
- Read-out: 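Stores emptied by 2 µM thapsigargin without calcium, then 2 mM calcium re-added; fluo-4 fluorescence followed by FLIPR in 384-well plates, per-well averaged endpoint, raw; two screen passes, some wells retested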
- Direction: calcium signal and retest calcium signal: higher = more calcium entry after store depletion
- Hit rule: 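Knock-downs counted as hits when calcium entry dropped relative to STIM1 positive and Rho1 negative controls present on each plate; roughly 1500 genes called, with reductions of differing size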
- Calls: active = called as lowering calcium entry; inactive = not called
The screen tested about 20,000 reagents; shown is an unselected part of those that have a named target and a result. In the full data, about 2,100 (10%) were called active. 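Raw plate signals without normalisation; calls rest on control-based scores that were not deposited; replicate 2 separates called from uncalled poorly.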 Names joined by + are all predicted targets of the reagent. The record does not give: the amount of reagent, the time to read-out.

The first 7 records, to show the layout:
| Gene | DRSC id | calcium signal, replicate 1 | calcium signal, replicate 2 | retest calcium signal, replicate 1 | retest calcium signal, replicate 2 | activity call |
| --- | --- | --- | --- | --- | --- | --- |
| eIF3l (GeneID 39386) | DRSC10530 | 86.9 | 69.8 | – | – | inactive |
| Rsf1 (GeneID 34370) | DRSC03423 | 122 | 137 | – | – | inactive |
| Rsf1 (GeneID 34370) | DRSC21953 | 89 | 218 | – | – | inactive |
| ssp6 (GeneID 38694) | DRSC10677 | 99.1 | 67 | – | – | inactive |
| Cyp4g15 (GeneID 32093) | DRSC20240 | 71.9 | 96 | – | – | inactive |
| Pc (GeneID 40358) | DRSC11873 | 82.5 | 162 | – | – | inactive |
| CG31178 (GeneID 42575) | DRSC14590 | 193 | 141 | – | – | inactive |

Main list, from the first entry:
| Gene | DRSC id | calcium signal, replicate 1 | calcium signal, replicate 2 | retest calcium signal, replicate 1 | retest calcium signal, replicate 2 | activity call |
| --- | --- | --- | --- | --- | --- | --- |
| eIF3l (GeneID 39386) | DRSC10530 | 86.9 | 69.8 | – | – | inactive |
| Rsf1 (GeneID 34370) | DRSC03423 | 122 | 137 | – | – | inactive |
| Rsf1 (GeneID 34370) | DRSC21953 | 89 | 218 | – | – | inactive |
| ssp6 (GeneID 38694) | DRSC10677 | 99.1 | 67 | – | – | inactive |
| Cyp4g15 (GeneID 32093) | DRSC20240 | 71.9 | 96 | – | – | inactive |
| Pc (GeneID 40358) | DRSC11873 | 82.5 | 162 | – | – | inactive |
| CG31178 (GeneID 42575) | DRSC14590 | 193 | 141 | – | – | inactive |
| Or98a (GeneID 43341) | DRSC16774 | 110 | 77.8 | – | – | inactive |
| gig (GeneID 40201) | DRSC11351 | 86.8 | 86 | – | – | inactive |
| Yp3 (GeneID 32339) | DRSC20302 | 85.3 | 126 | – | – | inactive |
| CG10694 (GeneID 42855) | DRSC14263 | 223 | 185 | – | – | inactive |
| CG13482 (GeneID 39577) | DRSC10024 | 105 | 127 | – | – | inactive |
| ND-B14.7 (GeneID 37385) | DRSC04544 | 44 | 148 | – | – | inactive |
| VhaPPA1-2 (GeneID 41806) | DRSC16176 | 129 | 219 | – | – | inactive |
| DopEcR (GeneID 38539) | DRSC08529 | 75.3 | 83.5 | – | – | inactive |
| Obp56i (GeneID 246667) | DRSC05812 | 96.8 | 96 | – | – | inactive |
| RhoGAP19D (GeneID 33048) | DRSC20499 | 137 | 143 | – | – | inactive |
| RhoGAP19D (GeneID 33048) | DRSC20500 | 140 | 120 | – | – | inactive |
| CG6225 (GeneID 41559) | DRSC15996 | 142 | 73.4 | – | – | inactive |
| Cyp9b2 (GeneID 35635) | DRSC07390 | 123 | 137 | – | – | inactive |
| Flo1 (GeneID 36726) | DRSC07427 | 91.4 | 131 | – | – | inactive |
| Drat (GeneID 35687) | DRSC06600 | 170 | 106 | – | – | inactive |
| CG1421 (GeneID 35432) | DRSC03707 | 121 | 92.1 | – | – | inactive |
| Taf6 (GeneID 40134) | DRSC11299 | 62 | 93.1 | – | – | active |
| Sur (GeneID 34350) | DRSC03447 | 124 | 148 | – | – | inactive |
| CG32462 + asRNA:CR43426 | DRSC11851 | 129 | 124 | – | – | inactive |
| Gss1 + Gss2 | DRSC20008 | 84.8 | 125 | – | – | inactive |
| Gss1 + Gss2 | DRSC21539 | 270 | 84.4 | – | – | inactive |
| Aprt (GeneID 48224) | DRSC08139 | 79.4 | 96.4 | – | – | inactive |
| SrpRbeta (GeneID 47283) | DRSC21668 | 220 | 97.8 | – | – | inactive |
| CG1138 (GeneID 40805) | DRSC12530 | 120 | 149 | – | – | inactive |
| CG17193 (GeneID 50044) | DRSC15187 | 118 | 109 | – | – | inactive |
| hrm (GeneID 35499) | DRSC04853 | 96.5 | 223 | – | – | inactive |
| rdgC (GeneID 40224) | DRSC10069 | 73 | 124 | – | – | inactive |
| rdgC (GeneID 40224) | DRSC11387 | 57.9 | 110 | – | – | active |
| Dh44 (GeneID 41170) | DRSC16409 | 130 | 109 | – | – | inactive |
| AlaRS-m (GeneID 38595) | DRSC09660 | 113 | 88.6 | – | – | inactive |
| CG2200 (GeneID 32258) | DRSC19840 | 104 | 80.3 | – | – | inactive |
| Adgf-E (GeneID 36627) | DRSC05973 | 102 | 178 | – | – | inactive |
| CG14968 (GeneID 38406) | DRSC08427 | 77.8 | 109 | – | – | inactive |
| wgn (GeneID 32849) | DRSC19998 | 77.6 | 106 | – | – | inactive |
| Tsp42Eq (GeneID 35628) | DRSC06180 | 125 | 132 | – | – | inactive |
| CG34234 + Dh44-R2 | DRSC07278 | 126 | 183 | – | – | inactive |
| mus304 (GeneID 40003) | DRSC11372 | 96.6 | 129 | – | – | inactive |
| Syx4 (GeneID 31269) | DRSC18586 | 147 | 184 | – | – | inactive |
| so (GeneID 35662) | DRSC07693 | 70.7 | 64.8 | 136 | 123 | active |
| so (GeneID 35662) | DRSC23096 | 120 | 146 | – | – | inactive |
| CG10562 (GeneID 43066) | DRSC14257 | 65.9 | 81.9 | – | – | active |
| RabX2 (GeneID 31971) | DRSC18234 | 65.6 | 89.1 | 5636 | 129 | inactive |
| CG1671 (GeneID 36019) | DRSC06617 | 201 | 187 | – | – | inactive |
| elg1 (GeneID 39770) | DRSC10229 | 115 | 117 | – | – | inactive |
| ICA69 (GeneID 40331) | DRSC11621 | 116 | 96.8 | – | – | inactive |
| mRpL50 (GeneID 38796) | DRSC11015 | 78.8 | 115 | 75.5 | 86.1 | inactive |
| kni (GeneID 40287) | DRSC11891 | 91.6 | 82.1 | – | – | active |
| kni (GeneID 40287) | DRSC23093 | 102 | 112 | – | – | inactive |
| CG9231 (GeneID 40130) | DRSC11054 | 114 | 105 | – | – | inactive |
| CG9040 (GeneID 39546) | DRSC11053 | 89.9 | 121 | – | – | inactive |
| Gem2 (GeneID 40087) | DRSC09721 | 149 | 79 | – | – | inactive |
| egr (GeneID 36054) | DRSC06233 | 132 | 108 | – | – | inactive |
| to (GeneID 43036) | DRSC17086 | 223 | 130 | – | – | inactive |
| RhoL (GeneID 41136) | DRSC16824 | 118 | 152 | – | – | inactive |
| unc79 (GeneID 42310) | DRSC15746 | 152 | 193 | – | – | inactive |
| Ipk1 (GeneID 37360) | DRSC04235 | 161 | 73.7 | – | – | inactive |
| Ipk1 (GeneID 37360) | DRSC04236 | 172 | 80.5 | – | – | inactive |
| Ipk1 (GeneID 37360) | DRSC04237 | 163 | 81.6 | – | – | inactive |
| NaCP60E (GeneID 37981) | DRSC04307 | 67.7 | 77.2 | – | – | active |
| NaCP60E (GeneID 37981) | DRSC21351 | 142 | 112 | – | – | inactive |
| CG2218 (GeneID 43611) | DRSC15428 | 113 | 138 | – | – | inactive |
| dbe (GeneID 33269) | DRSC00811 | 88.9 | 164 | – | – | inactive |
| Taf1 (GeneID 40813) | DRSC12607 | 170 | 155 | – | – | inactive |
| Obp19c (GeneID 33039) | DRSC20528 | 98.9 | 102 | – | – | inactive |
| nbs (GeneID 44259) | DRSC11373 | 102 | 91.5 | – | – | inactive |
| CG42365 (GeneID 37469) | DRSC04266 | 233 | 123 | – | – | inactive |
| Proc-R (GeneID 31408) | DRSC18410 | 189 | 111 | – | – | inactive |
| CG15147 (GeneID 35069) | DRSC02447 | 127 | 159 | 140 | 120 | inactive |
| CG15147 (GeneID 35069) | DRSC02448 | 122 | 108 | – | – | inactive |
| CG6656 (GeneID 42576) | DRSC16085 | 107 | 183 | – | – | inactive |
| CG14646 (GeneID 40555) | DRSC12232 | 126 | 90.4 | 143 | 125 | inactive |
| CG14646 (GeneID 40555) | DRSC21316 | 133 | 95.8 | – | – | inactive |
| CG30486 (GeneID 246645) | DRSC06680 | 108 | 160 | – | – | inactive |
| Dlic (GeneID 32057) | DRSC19824 | 124 | 78.8 | – | – | inactive |
| eIF2gamma + Su(var)3-9 | DRSC16873 | 125 | 135 | – | – | inactive |
| Gr10a (GeneID 117501) | DRSC22792 | 78 | 104 | – | – | inactive |
